In paper PMC8329861, “Structure of the unique tetrameric STENOFOLIA homeodomain bound with target promoter DNA”:
Numbering of substitutions follows the chain as printed. For part of these data: Negatives hold for the conditions tested. For part of these data: At least one verdict was read from the data and is not stated in words by the source. Where a protein sequence is shown, tags need not be part of it. For part of these data: Weaker means in comparison with the reference protein, sequence or condition of that experiment. For part of these data: Construct, isoform or probe ends are uncertain for at least one entry.

Assays:
[1] = molecular target: T1, His-MBP-STF85-190 WT (Medicago truncatula) (UniProt G0ZGT3); experiment: EMSA; conditions: PAGE EMSA: 10 mM Tris-HCl pH 7.5, 100 mM KCl, 1 mM DTT, 2.5% glycerol, 5 ng/ul poly(dI-dC), 0.05% NP-40, 0.05 ug/ul protein, 5 fmol/ul DNA, room temperature 30 min; recombinant protein; residues 85-190; protein details: N-terminal 6xHis-MBP; label: 3' biotin
T1 sequence (looked up): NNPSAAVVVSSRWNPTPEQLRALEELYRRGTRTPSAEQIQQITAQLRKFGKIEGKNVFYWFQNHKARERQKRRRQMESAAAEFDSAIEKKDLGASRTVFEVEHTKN

[2] = molecular target: T2, STF-HD WT (Medicago truncatula) (UniProt G0ZGT3); experiment: fluorescence polarization; conditions: value only in figure; FP: 50 mM Tris-HCl pH 7.4, 125 mM NaCl, 50 nM DNA; recombinant protein; residues 85-190; protein details: 6xHis-MBP removed by TEV; label: 5' 6-FAM
T2 sequence (looked up): T1 sequence (looked up)

[3] = molecular target: T3, STF-HD F142Y/Y143N (Medicago truncatula) (UniProt G0ZGT3); experiment: fluorescence polarization; conditions: significant decrease in affinity, value only in figure; FP: 50 mM Tris-HCl pH 7.4, 125 mM NaCl, 50 nM DNA; recombinant protein; residues 85-190; protein details: 6xHis-MBP removed by TEV; label: 5' 6-FAM
T3 sequence (looked up): T1 sequence (looked up) with F58Y, Y59N

[4] = molecular target: T4, His-MBP-STF85-190 KRR/AAA K155A,R156A,R157A (Medicago truncatula) (UniProt G0ZGT3); experiment: EMSA; conditions: reduced; PAGE EMSA: 10 mM Tris-HCl pH 7.5, 100 mM KCl, 1 mM DTT, 2.5% glycerol, 5 ng/ul poly(dI-dC), 0.05% NP-40, 0.05 ug/ul protein, 5 fmol/ul DNA, room temperature 30 min; recombinant protein; residues 85-190; protein details: N-terminal 6xHis-MBP; label: 3' biotin
T4 sequence (looked up): T1 sequence (looked up) with K71A, R72A, R73A

[5] = molecular target: T5, His-MBP-STF85-190 R113Q + KRR/AAA R113Q,K155A,R156A,R157A (Medicago truncatula) (UniProt G0ZGT3); experiment: EMSA; conditions: greatly decreased; PAGE EMSA: 10 mM Tris-HCl pH 7.5, 100 mM KCl, 1 mM DTT, 2.5% glycerol, 5 ng/ul poly(dI-dC), 0.05% NP-40, 0.05 ug/ul protein, 5 fmol/ul DNA, room temperature 30 min; recombinant protein; residues 85-190; protein details: N-terminal 6xHis-MBP; label: 3' biotin
T5 sequence (looked up): T1 sequence (looked up) with R29Q, K71A, R72A, R73A

[6] = molecular target: T6, His-MBP-STF85-190 N147I (Medicago truncatula) (UniProt G0ZGT3); experiment: EMSA; conditions: text also cites Zhang 2014; PAGE EMSA: 10 mM Tris-HCl pH 7.5, 100 mM KCl, 1 mM DTT, 2.5% glycerol, 5 ng/ul poly(dI-dC), 0.05% NP-40, 0.05 ug/ul protein, 5 fmol/ul DNA, room temperature 30 min; recombinant protein; residues 85-190; protein details: N-terminal 6xHis-MBP; label: 3' biotin
T6 sequence (looked up): T1 sequence (looked up) with N63I

[7] = molecular target: T7, His-MBP-STF85-190 F142Y/Y143N (Medicago truncatula) (UniProt G0ZGT3); experiment: EMSA; conditions: slightly reduced; PAGE EMSA: 10 mM Tris-HCl pH 7.5, 100 mM KCl, 1 mM DTT, 2.5% glycerol, 5 ng/ul poly(dI-dC), 0.05% NP-40, 0.05 ug/ul protein, 5 fmol/ul DNA, room temperature 30 min; recombinant protein; residues 85-190; protein details: N-terminal 6xHis-MBP; label: 3' biotin
T7 sequence (looked up): T1 sequence (looked up) with F58Y, Y59N

Sequence: GCAAATCTATGATCTATTCAAG (double strand) [TGA probe (TGA motifs only)]
- binding result [1]: binds

Sequence: GCAAATTAATGATTTATTCAAG (double strand) [MtLOB39 22 bp FAM]
- binding result [2]: binds
- binding result [3]: binds more weakly

Sequence: GCAAATTAATTATTTATTAAAG (double strand) [TAAT probe (TAAT motifs)]
- binding result [1]: binds

Sequence: TGGATTTAATAATGAAGTGACA (double strand) [MtAS2 22 bp biotin]
- binding result [1]: binds
- binding result [4]: binds more weakly
- binding result [5]: binds more weakly
- binding result [6]: no binding
- binding result [7]: binds more weakly
